{
  "sequences": {"note": "The chains behind the UniProt entries cited, without tags or fusion partners. Where a name states a change or a piece, a line headed by the entry shows the natural chain unless it says otherwise.", "UniProt Q9NUB1": "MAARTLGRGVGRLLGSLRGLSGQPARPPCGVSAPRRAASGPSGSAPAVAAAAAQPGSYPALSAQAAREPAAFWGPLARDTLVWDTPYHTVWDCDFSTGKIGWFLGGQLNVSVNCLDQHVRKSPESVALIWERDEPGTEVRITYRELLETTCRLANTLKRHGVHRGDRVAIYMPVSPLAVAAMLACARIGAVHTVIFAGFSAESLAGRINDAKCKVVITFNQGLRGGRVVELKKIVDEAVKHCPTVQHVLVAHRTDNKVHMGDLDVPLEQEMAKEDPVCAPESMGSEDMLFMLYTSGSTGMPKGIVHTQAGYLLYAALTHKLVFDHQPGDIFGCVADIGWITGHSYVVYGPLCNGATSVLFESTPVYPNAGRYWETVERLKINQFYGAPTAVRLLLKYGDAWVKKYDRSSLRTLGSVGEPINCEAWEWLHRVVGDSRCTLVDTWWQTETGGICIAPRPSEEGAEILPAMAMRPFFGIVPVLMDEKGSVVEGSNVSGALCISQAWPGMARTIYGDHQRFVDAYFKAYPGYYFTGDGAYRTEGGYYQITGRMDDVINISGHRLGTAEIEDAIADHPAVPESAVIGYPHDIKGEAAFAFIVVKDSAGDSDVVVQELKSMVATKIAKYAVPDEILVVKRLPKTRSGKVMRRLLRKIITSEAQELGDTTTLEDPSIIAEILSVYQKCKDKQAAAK", "UniProt O60488": "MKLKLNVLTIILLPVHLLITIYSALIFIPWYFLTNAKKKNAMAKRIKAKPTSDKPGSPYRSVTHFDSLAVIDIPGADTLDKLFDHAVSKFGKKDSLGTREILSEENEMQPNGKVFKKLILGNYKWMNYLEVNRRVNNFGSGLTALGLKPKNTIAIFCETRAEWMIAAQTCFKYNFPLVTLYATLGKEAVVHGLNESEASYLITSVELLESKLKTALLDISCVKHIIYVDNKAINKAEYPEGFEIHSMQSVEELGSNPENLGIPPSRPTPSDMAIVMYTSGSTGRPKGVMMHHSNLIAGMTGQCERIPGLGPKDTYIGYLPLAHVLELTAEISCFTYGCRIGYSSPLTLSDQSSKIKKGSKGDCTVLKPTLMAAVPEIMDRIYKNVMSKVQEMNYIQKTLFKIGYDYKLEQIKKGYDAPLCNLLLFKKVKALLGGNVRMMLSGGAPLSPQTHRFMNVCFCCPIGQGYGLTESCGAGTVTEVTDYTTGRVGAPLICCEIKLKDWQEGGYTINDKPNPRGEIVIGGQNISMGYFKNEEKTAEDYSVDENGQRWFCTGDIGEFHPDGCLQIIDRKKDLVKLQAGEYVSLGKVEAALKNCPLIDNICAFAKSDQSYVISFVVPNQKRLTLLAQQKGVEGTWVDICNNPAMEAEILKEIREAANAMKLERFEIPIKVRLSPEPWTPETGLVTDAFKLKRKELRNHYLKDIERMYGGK", "UniProt Q96SZ5, whole entry, looked up": "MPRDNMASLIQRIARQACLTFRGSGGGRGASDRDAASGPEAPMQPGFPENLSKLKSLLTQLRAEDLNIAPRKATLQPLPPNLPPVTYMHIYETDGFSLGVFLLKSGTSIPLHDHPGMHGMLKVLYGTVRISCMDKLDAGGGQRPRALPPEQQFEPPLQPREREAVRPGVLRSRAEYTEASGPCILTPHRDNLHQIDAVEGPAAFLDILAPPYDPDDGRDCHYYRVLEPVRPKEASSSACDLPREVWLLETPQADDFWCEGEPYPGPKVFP", "UniProt Q13443": "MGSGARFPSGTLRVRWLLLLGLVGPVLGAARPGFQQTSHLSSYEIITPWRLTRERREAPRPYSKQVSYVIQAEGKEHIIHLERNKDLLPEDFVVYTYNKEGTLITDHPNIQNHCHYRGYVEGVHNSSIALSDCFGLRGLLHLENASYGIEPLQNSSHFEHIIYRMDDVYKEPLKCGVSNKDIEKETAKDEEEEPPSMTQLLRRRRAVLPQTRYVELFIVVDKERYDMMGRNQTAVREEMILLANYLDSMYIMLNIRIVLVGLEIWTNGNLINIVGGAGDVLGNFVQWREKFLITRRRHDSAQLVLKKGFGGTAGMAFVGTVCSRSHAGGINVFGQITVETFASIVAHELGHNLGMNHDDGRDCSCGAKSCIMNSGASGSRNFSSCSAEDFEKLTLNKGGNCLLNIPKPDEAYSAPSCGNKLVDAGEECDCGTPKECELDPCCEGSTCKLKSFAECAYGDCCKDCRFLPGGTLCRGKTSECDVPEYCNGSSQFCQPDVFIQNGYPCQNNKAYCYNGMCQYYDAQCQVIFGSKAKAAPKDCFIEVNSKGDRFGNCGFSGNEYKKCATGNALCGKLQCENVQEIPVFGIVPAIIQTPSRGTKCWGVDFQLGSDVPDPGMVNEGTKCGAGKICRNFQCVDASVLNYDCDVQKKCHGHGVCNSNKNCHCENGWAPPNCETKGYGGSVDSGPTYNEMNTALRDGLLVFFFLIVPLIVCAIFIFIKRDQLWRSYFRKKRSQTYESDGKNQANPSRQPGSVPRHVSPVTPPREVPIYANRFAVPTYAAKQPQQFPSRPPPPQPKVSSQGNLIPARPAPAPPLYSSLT", "UniProt P11766": "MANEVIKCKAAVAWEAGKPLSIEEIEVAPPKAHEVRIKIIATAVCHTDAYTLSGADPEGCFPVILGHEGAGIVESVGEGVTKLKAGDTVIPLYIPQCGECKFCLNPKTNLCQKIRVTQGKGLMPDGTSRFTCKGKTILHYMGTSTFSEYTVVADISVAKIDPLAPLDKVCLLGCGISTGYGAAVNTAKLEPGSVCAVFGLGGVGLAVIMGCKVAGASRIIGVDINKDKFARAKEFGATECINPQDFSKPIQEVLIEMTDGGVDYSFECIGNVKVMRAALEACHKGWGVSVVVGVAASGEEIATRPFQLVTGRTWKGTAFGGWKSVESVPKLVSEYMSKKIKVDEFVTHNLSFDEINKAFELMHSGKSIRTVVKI"},
  "source": "the supplement of paper PMC12067093",
  "about": "“Discovery and optimisation of a covalent ligand for TRIM25 and its application to targeted protein ubiquitination” (Chemical Science, 2025)",
  "compound": "Cc1cc(ccc1-c1ccccc1)C(=O)N1CCCN(CC1)C(=O)CCl [compound 10]",
  "assay": "probe-labelled cysteine peptide fold change vs DMSO (competition) (log2 fold change); higher = less target engagement (more negative = stronger competition)",
  "conditions": "THP-1, incubation time: 4 h",
  "note": "The other results are listed elsewhere or left out.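 Also: competitive profiling in live THP-1 cells: cysteine peptides tagged with an iodoacetamide desthiobiotin (IA-DTB) probe, intensity after compound treatment relative to DMSO-treated cells.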",
  "data": [
    {"target": "ACSS1_Q9NUB1_422_TLGSVGEPINCEAWEWLHR (UniProt Q9NUB1)", "values": [
      {"measurement": "probe-labelled cysteine peptide fold change", "setting": "10 µM", "value": -0.355},
      {"measurement": "probe-labelled cysteine peptide fold change", "setting": "50 µM", "value": -0.341}
    ]},
    {"target": "ACSL4_O60488_303_GVMMHHSNLIAGMTGQCER (UniProt O60488)", "values": [
      {"measurement": "probe-labelled cysteine peptide fold change", "setting": "10 µM", "value": 0.0362},
      {"measurement": "probe-labelled cysteine peptide fold change", "setting": "50 µM", "value": -0.0636}
    ]},
    {"target": "ADO_Q96SZ5_239_EASSSACDLPR (UniProt Q96SZ5)", "values": [
      {"measurement": "probe-labelled cysteine peptide fold change", "setting": "10 µM", "value": -0.271},
      {"measurement": "probe-labelled cysteine peptide fold change", "setting": "50 µM", "value": -0.501}
    ]},
    {"target": "ADAM9_Q13443_539_DCFIEVNSK (UniProt Q13443)", "values": [
      {"measurement": "probe-labelled cysteine peptide fold change", "setting": "10 µM", "value": -0.0729},
      {"measurement": "probe-labelled cysteine peptide fold change", "setting": "50 µM", "value": -0.137}
    ]},
    {"target": "ACTR8_Q9H981_179_WTNTSHHPEYLVGEEALYVNPLDCYNIHWPIRR (UniProt Q9H981)", "values": [
      {"measurement": "probe-labelled cysteine peptide fold change", "setting": "10 µM", "value": 0.218},
      {"measurement": "probe-labelled cysteine peptide fold change", "setting": "50 µM", "value": -0.0251}
    ]},
    {"target": "ADH5_P11766_170_VCLLGCGISTGYGAAVNTAK (UniProt P11766)", "values": [
      {"measurement": "probe-labelled cysteine peptide fold change", "setting": "10 µM", "value": 0.0396},
      {"measurement": "probe-labelled cysteine peptide fold change", "setting": "50 µM", "value": -0.394}
    ]}
  ]
}
